# According to patent publication US20180362443A1:
# Amino acid sequences for entries named in this document (tags omitted). A change or cut given only in a name is not applied to a line headed by its entry.
# UniProt P21860: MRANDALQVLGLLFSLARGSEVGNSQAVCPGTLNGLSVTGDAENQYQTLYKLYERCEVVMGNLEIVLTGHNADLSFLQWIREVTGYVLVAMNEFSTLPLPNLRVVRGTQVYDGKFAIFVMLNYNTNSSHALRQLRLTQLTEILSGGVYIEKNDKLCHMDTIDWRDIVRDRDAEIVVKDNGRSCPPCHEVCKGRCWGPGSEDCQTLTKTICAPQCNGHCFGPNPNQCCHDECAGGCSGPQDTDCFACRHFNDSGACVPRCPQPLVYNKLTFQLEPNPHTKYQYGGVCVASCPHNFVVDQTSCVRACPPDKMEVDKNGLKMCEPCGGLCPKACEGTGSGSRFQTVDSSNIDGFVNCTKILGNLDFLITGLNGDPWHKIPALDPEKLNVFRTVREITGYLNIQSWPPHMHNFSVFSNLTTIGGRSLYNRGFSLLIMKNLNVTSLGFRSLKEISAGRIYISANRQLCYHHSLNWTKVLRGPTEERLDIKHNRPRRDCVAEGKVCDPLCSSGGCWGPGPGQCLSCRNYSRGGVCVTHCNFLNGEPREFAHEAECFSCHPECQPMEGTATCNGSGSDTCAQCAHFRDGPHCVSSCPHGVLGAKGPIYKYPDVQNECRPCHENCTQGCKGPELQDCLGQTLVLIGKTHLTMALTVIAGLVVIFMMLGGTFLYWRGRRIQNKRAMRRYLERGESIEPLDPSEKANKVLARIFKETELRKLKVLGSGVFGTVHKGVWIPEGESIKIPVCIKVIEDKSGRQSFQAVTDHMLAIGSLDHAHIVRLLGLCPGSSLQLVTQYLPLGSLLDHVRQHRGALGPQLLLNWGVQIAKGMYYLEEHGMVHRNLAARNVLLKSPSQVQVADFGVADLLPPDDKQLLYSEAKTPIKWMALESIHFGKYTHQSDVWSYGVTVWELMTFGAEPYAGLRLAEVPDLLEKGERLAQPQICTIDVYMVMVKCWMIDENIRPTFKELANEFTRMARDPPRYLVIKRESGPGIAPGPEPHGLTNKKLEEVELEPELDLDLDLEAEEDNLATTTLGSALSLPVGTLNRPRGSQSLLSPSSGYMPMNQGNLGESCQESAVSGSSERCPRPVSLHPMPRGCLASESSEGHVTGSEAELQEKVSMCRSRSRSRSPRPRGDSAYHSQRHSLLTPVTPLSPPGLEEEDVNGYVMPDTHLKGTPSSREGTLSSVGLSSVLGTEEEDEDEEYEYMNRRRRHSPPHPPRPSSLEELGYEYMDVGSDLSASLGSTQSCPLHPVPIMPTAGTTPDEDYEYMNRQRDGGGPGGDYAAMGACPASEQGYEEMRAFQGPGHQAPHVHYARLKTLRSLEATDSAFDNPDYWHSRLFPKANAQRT
# No constants are given. Whether binding was seen depends on the method and setting. Some entries that bind do so weakly or less than the wild type.
# B1: 2C2-YTE anti-HER3 antibody (antibody, V domains shown)
# VH: EVQLLESGGGLVQPGGSLRLSCAASGFTFSYYYMQWVRQAPGKGLEWVSYIGSSGGVTNYADSVKGRFTISRDNSKNTLYLQMNSLRAEDTAVYYCARVGLGDAFDIWGQGTMVTVSS
# VL: QSVLTQPPSASGTPGQRVTISCSGSLSNIGLNYVSWYQQLPGTAPKLLISRNNQRPSGVPDRFSGSKSGTSASLAISGLRSEDEADYYCAAWDDSPPGEAFGGGTKLTVL
# Molecular target: ErbB3 (HER3) expressed on B-Raf mutated tumor cell lines HT29, A375, A2058 and WM115 (human) (UniProt P21860)
# Assay: flow cytometry on HT29, A375, A2058 and WM115 cells; specific binding = MFI of labeled probe alone over labeled probe with excess unlabeled probe
binder,measurement,value
B1,binding,binds
